Measured values published in PubChem BioAssay AID588497 (NMMLSC, 2011).
In all, about 360,000 compounds went through this assay and about 780 (0.22%) were called active. Inconclusive means that the source gave no clear call. Such entries were picked first, then a sample of the others. Rule as the data show it: active = inhibition above about 35% (passing the limit was not always enough); inconclusive = no clear call, values can overlap the other calls.

system: Botulinum neurotoxin type F light chain protease (Clostridium botulinum); test: BoNT/F light chain protease inhibitors, primary screen, biochemical, flow cytometry, MLPCN library (AID 588497); settings: Multiplex microsphere protease cleavage assay, at 10 µM, stronger effect = higher value; also: plate controls were buffer without enzyme for full effect and enzyme alone for no effect

| Compound | inhibition |
| --- | --- |
| CCOC(=O)Cc1csc(NC(=O)c2csc(C)c2)n1 | inactive: -0.9% |
| COc1cc(CN2CCC(CCC(=O)NC3CC3)CC2)cc(Cl)c1OC | inconclusive: 5.3% |
| O=C1NC(=Nc2ccccc2Cl)S/C1=C\c1cc([N+](=O)[O-])ccc1O | inconclusive: -23.4% |
| CC(C)c1ccc(NC(=O)C2CC2c2ccccc2)cc1 (stereo unspecified) | inconclusive: -11.2% |
| CCOc1ccc2nc(NS(=O)(=O)c3cccs3)sc2c1 | inconclusive: -3% |
| CSCCC(NC(=O)c1ccco1)C(=O)N1CCCCCCC1 (stereo unspecified) | inconclusive: 1.6% |
| Cc1cccc(C)c1NC(=O)Cn1nc(-c2ccccc2)nc1-c1ccccc1 | inconclusive: -17.6% |
| O=c1c(Br)c(NCc2ccccc2)cnn1-c1ccc(F)cc1 | inactive: -3.9% |
| O=C(c1ccco1)N1N=C(c2ccccc2)CC1c1ccc2nccnc2c1 (stereo unspecified) | inconclusive: -27% |
| [N-]=[N+]=CC(=O)C(c1ccccc1)(c1ccccc1)c1ccccc1 | inconclusive: 39.1% |
| CCn1c(SCC(=O)Nc2ccccc2C)nc2nc3c(cc2c1=O)COC(C)(C)C3 | inconclusive: 110% |
| O=C(NNC(=O)c1ccc(S(=O)(=O)N2CCOCC2)cc1)c1ccccc1 | active: 45.2% |
| Cc1ccc(C)c(-n2c(Cc3cc(=O)[nH]c(=O)[nH]3)nnc2SCC(=O)NCc2ccco2)c1 | inactive: 20% |
| CC(=O)c1ccc2ccccc2c1OC(=O)c1ccncc1 | inactive: -2.8% |
| O=S(=O)(CCN1CCN(c2ccccn2)CC1)c1ccc(F)cc1 | inconclusive: 126% |
| COc1ccc(/C=C2/SC(=O)N(NS(=O)(=O)c3ccccc3)C2=S)cc1OC | inactive: 3.7% |
| CCCCN(C)CCC(=O)Nc1ccc2c(c1)CCC2 | inactive: 1.9% |
| O=C(Nc1ccc(Cl)cn1)c1cccc2ccccc12 | inconclusive: -49% |
| N/C(=N\OC(=O)CCn1cccc(C(F)(F)F)c1=O)c1ccc(Cl)cc1 | inconclusive: 27.4% |
| Cn1nc(C2CC2)cc1NC(=O)C1(C)CCN1C(=O)CCc1ccccc1 (stereo unspecified) | inactive: 2.4% |
| CN(C)C1C(=O)C(C(N)=O)=C(O)C2(O)C(=O)C3=C(O)c4c(O)cccc4C(C)(O)C3CC12 (stereo unspecified) | inactive: -1.8% |
| CCOc1cc(NC(=O)Nc2ccccc2)c(OCC)cc1NC(=O)CC | inconclusive: 26.1% |
| COC(=O)c1ccc2nc(-c3ccco3)c(Cc3ccccc3C(F)(F)F)n2c1 | inactive: 0.6% |

| Compound | inhibition |
| --- | --- |
| COc1ccc(CCNC(=O)c2sc3nc4n(c(=O)c3c2C)CCC4)cc1 | inconclusive: 26% |
| Cc1cc(C(=O)NCC2CCCO2)sc1C (stereo unspecified) | inconclusive: -18.9% |
| O=C(C[n+]1cc(Br)cc2ccccc21)c1ccc(F)cc1 | active: 41.8% |
| COc1ccc(C(=O)COc2ccc3ccc(=O)oc3c2)c(OC)c1 | inactive: -0.5% |
| CCc1ccc(Nc2c([N+](=O)[O-])c(=O)oc3ccccc23)cc1 | inconclusive: -51.8% |
| COc1ccccc1NC(=O)CSc1nc2c(sc3ccccc32)c(=O)n1CCN(C)C | inactive: -13.3% |
| OC(c1ccc(Cl)c(F)c1)c1ncc(-c2cccc3ccccc23)[nH]1 (stereo unspecified) | inactive: -4.2% |
| COc1ccc(C2(C(=O)Nc3c(C)n(C)n(-c4ccccc4)c3=O)CCCC2)cc1OC | inconclusive: 20.4% |
| CCc1c(C)nc(N)nc1N1N=C1SCC(N)=O | inconclusive: 4.7% |
| COc1ccccc1CNC(=O)Cn1nnnc1CN(C)C(C)C | inconclusive: 11.3% |
| c1ccc(CCc2ccncc2)cc1 | inconclusive: -10% |
| Cc1onc(-c2ccccc2)c1CNS(=O)(=O)c1ccc(F)cc1F | inconclusive: 35.8% |
| CC(C)CN(C(=O)CN(C)CC(=O)Nc1ccc(Cl)c(C(F)(F)F)c1)c1c(N)n(CC(C)C)c(=O)[nH]c1=O | inactive: -3% |
| Cc1ccc(C(=O)NCC(=O)N2CCN(c3ccccc3O)CC2)s1 | inactive: -5.6% |
| COc1ccc(CCNC(=O)C2CCN(C(=O)c3ccc(F)cc3)CC2)cc1 | inconclusive: -29.7% |
| O=C(Nc1ccc2c(c1)OCCO2)c1ccc(Cl)c([N+](=O)[O-])c1 | inactive: -0.7% |
| COc1cc2sc(-c3ccccc3OC)c(-c3ccc(OCCN4CCCCC4)cc3)c2cc1OC | inactive: -13.2% |
| c1ccc(Oc2nc(-c3cccnc3)nc3ccccc23)cc1 | inconclusive: -53% |
| CC(C)C1NCCc2c1sc1ccccc21 (stereo unspecified) | inconclusive: -52.3% |
| CCOC(=O)Cc1csc(NC(=S)NC(=O)c2cc(OC)c(OC)c(OC)c2)n1 | inactive: -4.5% |
| Cn1ccc2c(-c3ccccc3F)cc3c(c21)C1CCC3C1 (stereo unspecified) | inactive: 2.3% |
| COc1ccccc1NC(=O)N1CCOCC1 | inconclusive: 4.1% |
| CNC(=O)NC(=O)CSc1ccc(S(=O)(=O)N2CCOCC2)cn1 | inactive: -5.3% |

A different layout for part of the listing above.
Compound	inhibition
COc1ccc(C2(C(=O)Nc3c(C)n(C)n(-c4ccccc4)c3=O)CCCC2)cc1OC	inconclusive: 20.4%
CCc1c(C)nc(N)nc1N1N=C1SCC(N)=O	inconclusive: 4.7%
COc1ccccc1CNC(=O)Cn1nnnc1CN(C)C(C)C	inconclusive: 11.3%
c1ccc(CCc2ccncc2)cc1	inconclusive: -10%
Cc1onc(-c2ccccc2)c1CNS(=O)(=O)c1ccc(F)cc1F	inconclusive: 35.8%
CC(C)CN(C(=O)CN(C)CC(=O)Nc1ccc(Cl)c(C(F)(F)F)c1)c1c(N)n(CC(C)C)c(=O)[nH]c1=O	inactive: -3%
Cc1ccc(C(=O)NCC(=O)N2CCN(c3ccccc3O)CC2)s1	inactive: -5.6%
COc1ccc(CCNC(=O)C2CCN(C(=O)c3ccc(F)cc3)CC2)cc1	inconclusive: -29.7%
O=C(Nc1ccc2c(c1)OCCO2)c1ccc(Cl)c([N+](=O)[O-])c1	inactive: -0.7%
COc1cc2sc(-c3ccccc3OC)c(-c3ccc(OCCN4CCCCC4)cc3)c2cc1OC	inactive: -13.2%
c1ccc(Oc2nc(-c3cccnc3)nc3ccccc23)cc1	inconclusive: -53%
CC(C)C1NCCc2c1sc1ccccc21 (stereo unspecified)	inconclusive: -52.3%
CCOC(=O)Cc1csc(NC(=S)NC(=O)c2cc(OC)c(OC)c(OC)c2)n1	inactive: -4.5%
